# Reference: the supplement of paper PMC8728848
# The other results are listed elsewhere or left out.
# B1: NK2 (Sus scrofa) (peptide)
# chain: KILRGVCKKIMRTFLRRISKDILTGKK
# Assays:
# Test in all cases: glycan array binding signal (z-score within array); higher = stronger binding
# Conditions in all cases: glycan notation: IUPAC condensed, linker removed
# Fuc(a1-2)Gal = target: Fuc(a1-2)Gal
# Outline: (§1)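 Glycan array data came from 3228 arrays in the Consortium for Functional Glycomics database, and only arrays with an available protein sequence were kept. Glycan names were put into IUPAC-condensed notation, and columns mapping to the same glycan were averaged. The binding signal is a within-array Z-score, averaged across arrays of one protein sequence run at different concentrations or buffers and across linkers. A negative Z-score can be read as non-binding.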
# Fuc(a1-2)Gal(b1-3)GalNAc = target: Fuc(a1-2)Gal(b1-3)GalNAc
# Outline: as §1
# [1] = target: Fuc(a1-2)Gal(b1-3)GalNAc(a1-3)[Fuc(a1-2)]Gal(b1-4)Glc
# Outline: as §1
# [2] = target: Fuc(a1-2)Gal(b1-3)GalNAc(a1-3)[Fuc(a1-2)]Gal(b1-4)GlcNAc
# Outline: as §1
# [3] = target: Fuc(a1-2)Gal(b1-3)GalNAc(b1-3)Gal
# Outline: as §1
# [4] = target: Fuc(a1-2)Gal(b1-3)GalNAc(b1-3)Gal(a1-4)Gal(b1-4)Glc
# Outline: as §1
# [5] = target: Fuc(a1-2)Gal(b1-3)GalNAc(b1-4)[Neu5Ac(a2-3)]Gal(b1-4)Glc
# Outline: as §1
# Fuc(a1-2)Gal(b1-3)GlcNAc = target: Fuc(a1-2)Gal(b1-3)GlcNAc
# Outline: as §1
# [6] = target: Fuc(a1-2)Gal(b1-3)GlcNAc(b1-2)Man(a1-3)[Fuc(a1-2)Gal(b1-3)GlcNAc(b1-2)Man(a1-6)]Man(b1-4)GlcNAc(b1-4)GlcNAc
# Outline: as §1
# [7] = target: Fuc(a1-2)Gal(b1-3)GlcNAc(b1-2)Man(a1-3)[Fuc(a1-2)Gal(b1-3)GlcNAc(b1-2)Man(a1-6)]Man(b1-4)GlcNAc(b1-4)[Fuc(a1-6)]GlcNAc
# Outline: as §1
# [8] = target: Fuc(a1-2)Gal(b1-3)GlcNAc(b1-3)Gal(b1-4)Glc
# Outline: as §1
# [9] = target: Fuc(a1-2)Gal(b1-3)GlcNAc(b1-3)GalNAc
# Outline: as §1
# [10] = target: Fuc(a1-2)Gal(b1-3)GlcNAc(b1-3)[Fuc(a1-2)Gal(b1-3)GlcNAc(b1-6)]GalNAc
# Outline: as §1
# [11] = target: Fuc(a1-2)Gal(b1-3)GlcNAc(b1-3)[Fuc(a1-3)[Gal(b1-4)]GlcNAc(b1-6)]Gal(b1-4)Glc
# Outline: as §1
# [12] = target: Fuc(a1-2)Gal(b1-3)GlcNAc(b1-3)[Gal(b1-4)GlcNAc(b1-6)]Gal(b1-4)Glc
# Outline: as §1
# [13] = target: Fuc(a1-2)Gal(b1-3)GlcNAc(b1-3)[Neu5Ac(a2-6)Gal(b1-4)GlcNAc(b1-6)]Gal(b1-4)Glc
# Outline: as §1
# [14] = target: Fuc(a1-2)Gal(b1-3)GlcNAc6S
# Outline: as §1
# [15] = target: Fuc(a1-2)Gal(b1-3)[Fuc(a1-4)]GlcNAc
# Outline: as §1
# [16] = target: Fuc(a1-2)Gal(b1-3)[Fuc(a1-4)]GlcNAc(b1-2)Man(a1-3)[Fuc(a1-2)Gal(b1-3)[Fuc(a1-4)]GlcNAc(b1-2)Man(a1-3)]Man(b1-4)GlcNAc(b1-4)GlcNAc
# Outline: as §1
# [17] = target: Fuc(a1-2)Gal(b1-3)[Fuc(a1-4)]GlcNAc(b1-2)Man(a1-3)[Fuc(a1-2)Gal(b1-3)[Fuc(a1-4)]GlcNAc(b1-2)Man(a1-6)]Man(b1-4)GlcNAc(b1-4)GlcNAc
# Outline: as §1
# [18] = target: Fuc(a1-2)Gal(b1-3)[Fuc(a1-4)]GlcNAc(b1-2)Man(a1-3)[Fuc(a1-2)Gal(b1-3)[Fuc(a1-4)]GlcNAc(b1-2)Man(a1-6)]Man(b1-4)GlcNAc(b1-4)[Fuc(a1-6)]GlcNAc(b1-4)[Fuc(a1-6)]GlcNAc
# Outline: as §1
# [19] = target: Fuc(a1-2)Gal(b1-3)[Fuc(a1-4)]GlcNAc(b1-3)[Fuc(a1-3)[Gal(b1-4)]GlcNAc(b1-6)]Gal(b1-4)Glc
# Outline: as §1
# [20] = target: Fuc(a1-2)Gal(b1-3)[Fuc(a1-4)]GlcNAc(b1-3)[Gal(b1-4)GlcNAc(b1-6)]Gal(b1-4)Glc
# Outline: as §1
# [21] = target: Fuc(a1-2)Gal(b1-4)Fuc(a1-3)]GlcNAc(b1-2)Man(a1-3)[Fuc(a1-2)Gal(b1-4)[Fuc(a1-3)]GlcNAc(b1-2)Man(a1-6)]Man(b1-4)GlcNAc(b1-4)GlcNAc
# Outline: as §1
# Fuc(a1-2)Gal(b1-4)Glc = target: Fuc(a1-2)Gal(b1-4)Glc
# Outline: as §1
# Fuc(a1-2)Gal(b1-4)Glc6S = target: Fuc(a1-2)Gal(b1-4)Glc6S
# Outline: as §1
# Fuc(a1-2)Gal(b1-4)GlcNAc = target: Fuc(a1-2)Gal(b1-4)GlcNAc
# Outline: as §1
# [22] = target: Fuc(a1-2)Gal(b1-4)GlcNAc(b1-2)Man
# Outline: as §1
# [23] = target: Fuc(a1-2)Gal(b1-4)GlcNAc(b1-2)Man(a1-3)[Fuc(a1-2)Gal(b1-4)GlcNAc(b1-2)Man(a1-6)]Man(b1-4)GlcNAc(b1-4)GlcNAc
# Outline: as §1
# [24] = target: Fuc(a1-2)Gal(b1-4)GlcNAc(b1-2)Man(a1-3)[Fuc(a1-2)Gal(b1-4)GlcNAc(b1-2)Man(a1-6)]Man(b1-4)GlcNAc(b1-4)[Fuc(a1-6)]GlcNAc
# Outline: as §1
binder,measurement,setting,value
B1,glycan array binding signal (z-score),Fuc(a1-2)Gal,-0.603
same,glycan array binding signal (z-score),Fuc(a1-2)Gal(b1-3)GalNAc,-0.095
same,glycan array binding signal (z-score),[1],-0.176
same,glycan array binding signal (z-score),[2],-0.352
same,glycan array binding signal (z-score),[3],0.02
same,glycan array binding signal (z-score),[4],0.154
same,glycan array binding signal (z-score),[5],-0.01
same,glycan array binding signal (z-score),Fuc(a1-2)Gal(b1-3)GlcNAc,-0.652
same,glycan array binding signal (z-score),[6],0.452
same,glycan array binding signal (z-score),[7],-0.029
same,glycan array binding signal (z-score),[8],-0.039
same,glycan array binding signal (z-score),[9],-0.165
same,glycan array binding signal (z-score),[10],0.079
same,glycan array binding signal (z-score),[11],-0.252
same,glycan array binding signal (z-score),[12],0.47
same,glycan array binding signal (z-score),[13],-0.921
same,glycan array binding signal (z-score),[14],0.182
same,glycan array binding signal (z-score),[15],-0.178
same,glycan array binding signal (z-score),[16],0.762
same,glycan array binding signal (z-score),[17],1.93
same,glycan array binding signal (z-score),[18],-0.492
same,glycan array binding signal (z-score),[19],-0.045
same,glycan array binding signal (z-score),[20],-0.228
same,glycan array binding signal (z-score),[21],-0.345
same,glycan array binding signal (z-score),Fuc(a1-2)Gal(b1-4)Glc,-0.122
same,glycan array binding signal (z-score),Fuc(a1-2)Gal(b1-4)Glc6S,0.153
same,glycan array binding signal (z-score),Fuc(a1-2)Gal(b1-4)GlcNAc,-0.333
same,glycan array binding signal (z-score),[22],1.58
same,glycan array binding signal (z-score),[23],-0.016
same,glycan array binding signal (z-score),[24],-0.423

# Pulled one by one from the entries so far:
binder,measurement,setting,value
B1,glycan array binding signal (z-score),[17],1.93
same,glycan array binding signal (z-score),[4],0.154
